{"source": "patent US20040121965A1", "about": "“Method of treating resistant tumors” (Wyeth Holdings Corporation, priority 2002, published 2004)", "tested_on": "KB-HTI-4.0", "test": "Cell survival assay, KB-3-1 line made resistant to Example 129 (KB-HTI-4.0)", "assay_type": "cell-based", "conditions": "Homo sapiens, KB 3-1, read-out: KB-HTI-4.0 IC50, nM", "description": "Cells lines with previously known mechanisms of resistance. […] Res. 8: 207-218,1996); KB-3-1 (parental derived from an epidermoid carcinoma), KB-8.5, KB-V1 (Akiyama S-I, Fojo A, Hanover J A, Pastan I, Gottesman M M. Isolation and genetic characterization of human KB cell lines resistant to multiple drugs. Somatic Cell Mol. Gen., 11: 117-126,1985; Shen D-W, Cardarelli C, Hwang J, Cornwell M, Richert N, Ishii S, Pastan I, Gottesman MM. […] J. Biol. Chem., 261: 7762-7770, 1986); and HL-60 (parental derived from human leukemia) and HL60/AR (McGrath T., Center M. S. Adriamycin resistance in HL60 cells in the absence of detectable P-glycoprotein. Biochem. Res. Commun., 145:1171-1176,1987); A549 and A549.EpoB40 (He L., Yang C.-P.H., Horwitz S. B. Mutations in p-tubulin map to domains involved in regulation of microtubule stability in epothilone-resistant cell lines. Molecular Cancer Therapeutics. 1: 3-10, 2001). HCT-15 human colon carcinoma and DLD-1 human colon carcinoma are obtained from American Tissue Culture Collection. The MX-1W carcinoma is a Wyeth variant orginally obtained as MX-1 breast carcinoma from the National Cancer Institute. Cell lines selected for resistance to Representative Example 129. […]\n2.2. […] Absorbance is read on a Victor V multi-label plate reader (Perkin Elmer, Gaithersburg, Md.). […]", "data": [{"smiles": "COc1cc2c(c(OC)c1OC)-c1ccc(OC)c(=O)cc1[C@@H](NC(C)=O)CC2", "note": "[colchicine, reference compound]", "values": [{"measurement": "IC50", "value": "22.35 ± 0.07", "unit": "nM"}]}]}
